We go through four substances from PMC11796345.

Chains of the proteins cited; added tags and fusions are not shown.
UniProt P06463: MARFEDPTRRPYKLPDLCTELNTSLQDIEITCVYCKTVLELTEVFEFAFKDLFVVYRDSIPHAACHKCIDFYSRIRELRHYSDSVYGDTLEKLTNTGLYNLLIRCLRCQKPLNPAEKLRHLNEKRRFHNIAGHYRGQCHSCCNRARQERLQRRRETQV
UniProt Q9UKT5: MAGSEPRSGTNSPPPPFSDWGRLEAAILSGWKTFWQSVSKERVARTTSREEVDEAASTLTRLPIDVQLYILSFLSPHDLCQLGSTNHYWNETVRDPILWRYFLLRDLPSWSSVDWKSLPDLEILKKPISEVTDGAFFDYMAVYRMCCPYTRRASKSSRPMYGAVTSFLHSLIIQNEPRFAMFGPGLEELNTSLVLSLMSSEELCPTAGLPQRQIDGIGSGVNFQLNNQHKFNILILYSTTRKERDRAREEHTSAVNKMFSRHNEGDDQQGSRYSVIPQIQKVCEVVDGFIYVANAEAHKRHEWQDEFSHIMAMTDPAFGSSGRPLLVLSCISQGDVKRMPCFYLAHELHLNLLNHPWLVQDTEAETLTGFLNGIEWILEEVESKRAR
UniProt P03126: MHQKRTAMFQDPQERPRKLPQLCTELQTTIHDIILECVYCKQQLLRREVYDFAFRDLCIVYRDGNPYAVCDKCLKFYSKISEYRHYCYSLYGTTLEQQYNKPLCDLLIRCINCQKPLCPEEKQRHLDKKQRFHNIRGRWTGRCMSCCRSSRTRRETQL

These are yes or no findings as the source states them, for the method shown. Binding seen in cells or lysates may run through a third protein. Some binding calls cover weakened binding; strength is not graded here. For some assays here: Sequences can lack the tags named with a protein.

Experiment [1] has as its target GST-tagged HPV-18E6 (HPV-18) (UniProt P06463). In words: pull-down; purified GST-18E6 or GST alone with in vitro translated FBXO4; immunoblot with anti-FBXO4; only the target purified.
Experiment [2] has as its target endogenous FBXO4 of HeLa cells (human (endogenous in HeLa)) (UniProt Q9UKT5). In words: co-IP; HeLa cells, siLuci (control; E6AP present), 72 h; lysate precipitated with anti-FBXO4 (anti-GFP as control antibody) overnight at 4°C; endogenous proteins.
The target is the same in experiment [3]. In words: co-IP; HeLa cells, siE6AP (E6AP silenced), 72 h; lysate precipitated with anti-FBXO4 (anti-GFP as control antibody) overnight at 4°C; endogenous proteins.
The target in experiment [4] is GST-tagged HPV-18E6 (HPV-18) (UniProt P06463). In words: pull-down; GST-tagged HPV-11, -16, -18 E6 or GST on glutathione agarose, incubated with extract of HEK293 E6AP K/O cells expressing Flag-FBXO4 (overnight at 4°C by the results; 2 h at room temperature by the methods); lysis buffer 50 mM HEPES pH 7.4, 150 mM NaCl, 1 mM MgCl2, 1% Triton X-100; only the target purified.

The target of experiment [5] is GST-tagged HPV-16E6 (HPV-16) (UniProt P03126). Described as above.
Experiment [6] addresses T1, GST-tagged HPV-11E6 (HPV-11) (UniProt P04019).
T1 sequence: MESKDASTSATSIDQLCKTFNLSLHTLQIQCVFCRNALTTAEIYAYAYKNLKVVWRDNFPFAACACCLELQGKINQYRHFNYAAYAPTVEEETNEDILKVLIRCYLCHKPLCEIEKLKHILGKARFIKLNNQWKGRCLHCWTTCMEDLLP
The experiment is described as above.

The target of experiment [7] is GST-tagged HPV-18E6 (HPV-18) (UniProt P06463). In words: pull-down; GST-18E6 or GST alone incubated with extracts of HEK293 E6AP K/O cells transfected with HA-E6AP, Flag-FBXO4 or both; western blot; only the target purified.
Experiment [8] deals with GFP-tagged HPV-18E6, full length (HPV-18) (UniProt P06463). In words: co-IP; ubiquitination assay: 293 E6AP K/O cells stably expressing GFP-18E6, transfected with HA-UB with or without Flag-FBXO4; anti-GFP precipitation; FBXO4 detected with anti-FBXO4.
Experiment [9] has the same target. In words: co-IP; HEK293 E6AP K/O cells with GFP, GFP-18E6 or its mutants and Flag-FBXO4; CBZ 20 nM for 5 h; anti-GFP antibody overnight at 4°C, protein G beads; FBXO4 detected with anti-FBXO4.
For experiment [10] the target is unchanged. In words: co-IP; HEK293 E6AP K/O cells stably expressing GFP-18E6, transfected with Flag-FBXO4 and HA-E6AP; CBZ 20 nM for 5 h; anti-GFP precipitation; western blot. On the technique in general: Immunoblotting shows a protein as a band on a membrane.
The target in experiment [11] is Flag-tagged FBXO4 (human) (UniProt Q9UKT5). In words: co-IP; HEK293 E6AP K/O cells with GFP or GFP-18E6 and Flag-FBXO4; CBZ 20 nM for 5 h; anti-Flag immobilized on agarose beads; blot with anti-GFP.

Consider “in vitro translated FBXO4 (from UniProt Q9UKT5 1-387)”, for which, in experiment [1], the binding result is given as “binds”.

On to “endogenous HPV-18E6 of HeLa cells (from UniProt P06463 1-158)”, for which the binding entry in [2] was “binds weakly”; in [3], “binds”.

Take “Flag-tagged FBXO4 (from UniProt Q9UKT5 1-387)”: the binding result in experiment [4], in experiment [5], in experiment [6], in experiment [7], in experiment [8] and in [9] was “binds” in each case. Also, in experiment [10], the binding result is “binds”.

Consider “GFP-tagged HPV-18E6, full length (from UniProt P06463 1-158)”, for which the binding result in experiment [11] is “binds”.
